# Among all 410,000 compounds or so, about 18,000 (4.4%) were called active. This list was built around the results that the source calls inconclusive (neither active nor inactive); the mix of calls is not that of the screen. Cut-off read from the data, not from the text of the source: active = activity change below about -60%; inconclusive = no clear call, values can overlap the other calls; inactive = above about -39%.
# Experiment: qHTS Assay for inhibitors of the human cytomegalovirus (HCMV)
# Settings: HFF cells, HCMV-luciferase reporter, 72 h; at 57.5 µM; active compounds read low
# Method in brief: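 Human foreskin fibroblasts infected with luciferase-reporter HCMV at MOI 1 PFU/cell, compounds at two doses. Luciferase measured 72 h post infection; normalized to buffer-only basal and Salinomycin (10uM) controls.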
# % is set by controls: 0 for no effect and ±100 for the full control effect.
row,SMILES,"activity change, negative = inhibition"
1,COc1ccc(NC(=O)N(C)C[C@H]2Oc3c(NC(=O)NC(C)C)cccc3C(=O)N([C@H](C)CO)C[C@@H]2C)cc1,inconclusive: -55.6%
2,CCOC(=O)C1=C[C@@H](C(C)(C)C)N(S(=O)(=O)c2ccc(C)cc2)[C@H]1c1ccccc1,inconclusive: -48.3%
3,COc1cccc(C(=O)NC(=S)Nc2ccccc2N2CCCC2)c1,inactive: 21.5%
4,O=C(O)CC(C(=O)O)n1nc(-c2ccccc2)cc1-c1ccccc1 (stereo not drawn),inactive: 84%
5,Cc1ccc2c(Cl)c(C)c(N3CCCCC3)nc2n1,inconclusive: -45.1%
6,CCOc1cc(CNC(=O)Cn2c(-c3cccs3)cc3cc(F)ccc32)ccc1OC,inconclusive: -42.7%
7,Cc1c(C(=O)Nc2cccc([N+](=O)[O-])c2)sc2ncn(CC(=O)N3CCOCC3)c(=O)c12,inconclusive: -43.8%
8,O=S(=O)(c1ccc(S(=O)(=O)N2CCN(C3CCCCC3)CC2)cc1)N1CCCCCC1,inactive: 8.34%
9,Cc1ccccc1CN1C(=O)c2ccccc2S1(=O)=O,inconclusive: -50.8%
10,COc1ccc(NC(=O)c2cncc(Br)c2)cc1S(=O)(=O)N1CCCCC1,inconclusive: -44.3%
11,CC(C)(C)C(=O)N(Cc1ccc(Cl)cc1)Cc1cccnc1,inconclusive: -44.7%
12,CCN(CC)c1ccc(NC(=O)CSc2nnc3nc(C)cc(C)n23)cc1,active: -107%
13,O=C(Nc1ccc(C2CC2(Cl)Cl)cc1)c1cccc([N+](=O)[O-])c1 (stereo not drawn),inconclusive: -40.5%
14,Cc1cc2cc(C(c3nnnn3C3CCCC3)N(Cc3cccnc3)Cc3ccco3)c(=O)[nH]c2cc1C (stereo not drawn),active: -66.5%
15,Cc1cc[n+](C(C)C(=O)c2ccc(Cl)cc2)cc1 (stereo not drawn),inactive: -24%
16,COc1ccccc1N1CCN(C(=O)c2cc(C(C)(C)C)oc2C)CC1,inconclusive: -45.8%
17,CC(=O)c1ccc(OCC(O)CN2CCN(c3ccc(F)cc3)CC2)cc1 (stereo not drawn),inactive: 0.685%
18,CN1C(=O)[C@@H]2C[C@@]3([C@@]45C[C@H]6C(=O)N(C)[C@@H](Cc7ccccc7)C(=O)N6[C@@H]4Nc4ccccc45)c4ccccc4N[C@H]3N2C(=O)[C@@H]1Cc1ccccc1,active: -68.1%
19,CCCCOc1cccc(OCCCC)c1C(=O)Nc1cc(C)on1,inconclusive: -52.8%
20,Cc1ccccc1Nc1c(-c2cccs2)nc2cccc(C)n12,inactive: 5.66%
21,COc1ccc(Cl)cc1C(=O)C1CCCN(Cc2cnc(N3CCOCC3)s2)C1 (stereo not drawn),inconclusive: -50.1%

row,SMILES,"activity change, negative = inhibition"
1,NS(=O)(=O)c1ccc(NC(=O)COC(=O)c2cc([N+](=O)[O-])ccc2Cl)cc1,inconclusive: -47.5%
2,Cc1cc2ccccn2c1C(=O)Nc1ccccc1,inactive: 17.4%
3,O=C(c1ccco1)N1N=C(c2ccc(Br)cc2)CC1(O)C(F)(F)F (stereo not drawn),inconclusive: -40.3%
4,Cc1ccc(NC(=O)Cn2nnc(C(=O)NCc3ccc4c(c3)OCO4)c2N)cc1Cl,inconclusive: -49.7%
5,S=C(NCc1ccco1)N1CCN(c2nc(-c3ccccc3)cs2)CC1,inconclusive: -51.5%
6,CC[N+]1(C)CCC(O)(/C=C/c2ccccc2)C(C(=O)/C=C/c2ccccc2)C1 (stereo not drawn),inconclusive: -45%
7,CCOC(=O)c1sc2nc(C)nc(NCc3ccccc3)c2c1C,inconclusive: -52.3%
8,CC1(C)Cc2c(ccc3ccccc23)C2=C(C(=O)N3CCCC3)C(=O)C(=O)N21,inconclusive: -42.1%
9,Cc1ccc2cccc(NS(=O)(=O)c3ccccc3)c2n1,active: -80%
10,CSCC[C@H](NC(=O)c1ccc(Cl)c([N+](=O)[O-])c1)c1nc2ccccc2[nH]1,inactive: 23%
11,CC(NC(=O)c1ccccc1O)c1ccccc1 (stereo not drawn),inconclusive: -46.6%
12,O=C(O)c1ccc(/C=C/c2nc3ccccc3c(=O)[nH]2)cc1,inconclusive: -40.1%
13,COc1ccc(CNc2ncnc3cc(Cl)ccc23)cc1,active: -64.7%
14,CCOc1ccc(-c2cc(N)n(S(=O)(=O)c3ccc(OC)cc3)n2)cc1,inconclusive: -56.7%
15,C=CC(COCc1ccccc1)N(Cc1ccccc1)S(=O)(=O)c1ccccc1Br (stereo not drawn),inconclusive: -58.6%
16,COc1cc2c(cc1OC)C(C)N(C(=O)c1sccc1C)CC2 (stereo not drawn),inconclusive: -46.8%
17,COc1ccc(C(=O)NNC(=O)CSc2nnc(COc3ccccc3)n2C)cc1,inactive: 21.4%
18,CCC1CCCCN1CC(C)(C)NS(=O)(=O)c1ccccc1 (stereo not drawn),inconclusive: -45.2%
19,CCN(CC)C(=O)c1cccc(-c2csc(C(C)(O)c3ccc(OC)cc3)n2)c1 (stereo not drawn),inconclusive: -42.1%
20,CCNC(=O)C1(C)CCN1C(=O)CCc1cccc(Cl)c1 (stereo not drawn),inactive: 47.5%
21,O=C(COc1ccccc1[N+](=O)[O-])N1CCN(S(=O)(=O)c2ccccc2)CC1,inconclusive: -49.4%

row,SMILES,"activity change, negative = inhibition"
1,OCc1ccc(-c2cccc3nccn23)cc1,inactive: 12.7%
2,O=C(NC1CC1)C1CCN(C2CCN(C(=O)/C=C/c3ccc(F)cc3)CC2)CC1,inactive: -25.2%
3,Cc1cc(C)n(Cc2ccc(NC(=O)c3nn(C)cc3[N+](=O)[O-])cc2)n1,active: -101%
4,COc1ccccc1NC(=O)c1sc2ncn(Cc3ccc(C)cc3)c(=O)c2c1C,inconclusive: -47.6%
5,COc1cc2cc(CN(CCCN3CCOCC3)C(=O)Nc3ccccc3F)c(=O)[nH]c2cc1OC,inconclusive: -41.2%
6,COc1ccc(/C=N/NC(=O)CN(C)S(=O)(=O)c2ccc(NC(C)=O)cc2)cc1,inconclusive: -47.7%
7,Cc1ccc(C2=NNC(c3ccc(Cl)cc3)=Nc3ccccc32)o1,inconclusive: -52.8%
8,O=C(CN1C(=O)S/C(=C\c2ccc(F)cc2)C1=O)NC1C=CS(=O)(=O)C1 (stereo not drawn),inconclusive: -57.5%
9,O=C(Cn1c(C(F)(F)F)nc2ccccc21)NCCN1CCCC1,inactive: 40.3%
10,CN1CCC(N(C)C(=S)NCCc2ccccc2)CC1,inconclusive: -53.8%
11,CCS(=O)(=O)N1N=C(c2ccccc2)CC1c1ccc2nccnc2c1 (stereo not drawn),inconclusive: -47.8%
12,O=C(CSCc1cnn(-c2ccccc2)c1-n1cccc1)NCc1cccnc1,inconclusive: -45.6%
13,CCNC(=O)NC(=O)COC(=O)CCc1nc(=O)c2ccccc2n1C,inconclusive: -51.8%
14,Cc1ccc(S(=O)(=O)N2CCN(C(=O)CSCc3ccc(C(C)C)cc3)CC2)cc1,inconclusive: -53.1%
15,CCCC(O)(c1ccc(Br)cc1)C(CN1CCOCC1)c1ccc(Cl)cc1 (stereo not drawn),inconclusive: -41.9%
16,CC1=C(CC(=O)O)c2cc(F)ccc2C1=Cc1ccc(S(C)(=O)=O)cc1,inactive: 38.6%
17,O=C(CCN1CCOCC1)c1ccc(Cl)cc1,inconclusive: -41.7%
18,COc1ccc(NC(=O)CN(C)C(=O)/C=C/c2cn(-c3ccccc3)nc2-c2ccc(C)cc2)cc1,inactive: -38%
19,CCCNC(=O)CSc1nc(Cc2ccccc2)nc2ccccc12,inconclusive: -57.9%
20,CC(=O)N1CCN(c2ccc(C(N)=O)cc2[N+](=O)[O-])CC1,inactive: -32.5%
21,CC1Sc2ccc(S(=O)(=O)N3CCC(C(=O)Nc4ccc(Cl)cc4)CC3)cc2NC1=O (stereo not drawn),active: -71.1%

row,SMILES,"activity change, negative = inhibition"
1,CCOc1ccc(S(=O)(=O)Nc2nc3ccccc3nc2Nc2ccc(OC)cc2)cc1,inconclusive: -55.1%
2,CCC1=C(OC(=O)N(CC)CC)N2C(=O)OC(=NCC3CC3)[C@]2(Cc2ccccc2)[C@H]2C1=CC[C@H]1C(=O)N(c3ccccc3)C(=O)[C@H]12,inactive: 27.2%
3,COc1ccccc1S(=O)(=O)N(C)C[C@H]1OCc2cnnn2CCCC(=O)N([C@@H](C)CO)C[C@@H]1C,inactive: 18.3%
4,COc1ccccc1C1CCCN1Cc1nc(-c2ccc(C)s2)oc1C (stereo not drawn),active: -98.9%
5,COC(=O)[C@]1(C)N[C@H](CN(C)C(=O)Nc2ccccc2)[C@@H]2C(=O)N(C)C(=O)[C@@H]21,inactive: 20.3%
6,CCOc1ccc(C(=O)OCC(=O)Nc2cc(S(=O)(=O)N3CCOCC3)ccc2N2CCOCC2)cc1,inactive: 0%
7,O=C(NCc1ccc2c(c1)OCO2)C(=O)Nc1cc2c3c(c1)CC(=O)N3CCC2,inconclusive: -54.7%
8,Cc1cccc(NC(=O)C(NS(=O)(=O)c2ccc3c(c2)oc(=O)n3C)C(C)C)c1 (stereo not drawn),inactive: 9.63%
9,CCOC(=O)c1cc(-c2ccccc2)n(Cc2cc(CC)no2)n1,inactive: -32.4%
10,O=C(NCc1ccco1)c1ccc2c(c1)OCCO2,inactive: 52.3%
11,CC(C)NC(=S)NC(=O)c1ccc(-c2ccccc2)cc1,active: -80.9%
12,Cc1ccccc1N(C(=O)c1snc(C(N)=O)c1N)C(C(=O)NCc1ccccc1)c1ccc(O)cc1 (stereo not drawn),inactive: 18.3%
13,Cc1cc(C)c(C)c(C(=O)CSc2nnc(-c3ccc4[nH]c(C)c(C)c4c3)o2)c1C,inconclusive: -56.3%
14,CCN(CC(=O)NCc1ccc(F)cc1)C(=O)/C=C/c1ccc(OC)c(S(=O)(=O)NC(C)C)c1,inconclusive: -41.3%
15,O=C(Cn1cnc2ccccc21)Nc1cc(C(F)(F)F)ccc1N1CCOCC1,inactive: 3.68%
16,O=C(NCc1ccco1)c1ccc2c(c1)N(Cc1ccccc1)C(=O)CS2,inconclusive: -41.2%
17,O=S(=O)(c1ccccc1)c1nc(NCc2cccnc2)sc1Cl,inconclusive: -46.1%
18,COc1ccc(CNC(=O)c2ccc(CS(=O)Cc3ccccc3Cl)o2)cc1 (stereo not drawn),inconclusive: -43.3%
19,Cc1cc(C(F)(F)F)n2nc(-c3sccc3-n3cccc3)cc2n1,inconclusive: -58.2%
20,COc1ccccc1N(C)S(=O)(=O)c1ccc(C(=O)OCC(=O)Nc2cc(C)on2)cc1,inconclusive: -54.1%

# Ordered by formula weight (descending): 4 of the compounds above
row,SMILES,"activity change, negative = inhibition"
10,COc1ccc(NC(=O)c2cncc(Br)c2)cc1S(=O)(=O)N1CCCCC1,inconclusive: -44.3%
19,Cc1cc(C(F)(F)F)n2nc(-c3sccc3-n3cccc3)cc2n1,inconclusive: -58.2%
7,Cc1ccc(C2=NNC(c3ccc(Cl)cc3)=Nc3ccccc32)o1,inconclusive: -52.8%
11,CC(C)(C)C(=O)N(Cc1ccc(Cl)cc1)Cc1cccnc1,inconclusive: -44.7%

# — PubChem BioAssay AID1259415 (National Center for Advancing Translational Sciences (NCATS), 2018)
